Here are results for one molecule from US8980932B2, “Cancer targeting using carbonic anhydrase isoform IX inhibitors” (Stichting Maastricht Radiation Oncology “Maastro-Clinic”, priority 2010, dated 2015).

This assay relates to HT-29 xenografts harbouring a knock-down for CA IX. As to conditions: single treatment.

On to `CC(=O)Nc1nnc(S(N)(=O)=O)s1` [AZA, Acetazolamide], for which the “therapeutic effect on CA IX shRNA (KD) tumors” value was “demonstrated also an effect on the KD tumors”.
